This assay deals with T1, Epstein-Barr virus (EBV) BGLF2 protein, FLAG-tagged (Epstein-Barr virus) (UniProt P0CK53).
T1 sequence: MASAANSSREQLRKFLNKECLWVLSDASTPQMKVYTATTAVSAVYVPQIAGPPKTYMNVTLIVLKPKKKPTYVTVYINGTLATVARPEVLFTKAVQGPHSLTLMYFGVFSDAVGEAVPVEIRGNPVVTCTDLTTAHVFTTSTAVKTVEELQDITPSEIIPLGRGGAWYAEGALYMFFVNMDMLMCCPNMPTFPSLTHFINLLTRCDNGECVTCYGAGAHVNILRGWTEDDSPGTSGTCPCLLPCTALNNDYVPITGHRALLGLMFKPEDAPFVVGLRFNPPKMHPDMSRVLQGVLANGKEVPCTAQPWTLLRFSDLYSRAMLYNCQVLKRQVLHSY
Put plainly: affinity purification with mass spectrometry; BGLF2-FLAG expressed in 293T cells, recovered on M2 anti-FLAG resin from lysate in modified RIPA buffer (250 mM NaCl), 4 h at 4°C; co-purifying proteins by LC-MS/MS; two experiments, compared with empty FLAG plasmid and the CRAPome.

Sequences of proteins named here, by UniProt entry; tags and fusion partners are left off.
UniProt Q8TF46: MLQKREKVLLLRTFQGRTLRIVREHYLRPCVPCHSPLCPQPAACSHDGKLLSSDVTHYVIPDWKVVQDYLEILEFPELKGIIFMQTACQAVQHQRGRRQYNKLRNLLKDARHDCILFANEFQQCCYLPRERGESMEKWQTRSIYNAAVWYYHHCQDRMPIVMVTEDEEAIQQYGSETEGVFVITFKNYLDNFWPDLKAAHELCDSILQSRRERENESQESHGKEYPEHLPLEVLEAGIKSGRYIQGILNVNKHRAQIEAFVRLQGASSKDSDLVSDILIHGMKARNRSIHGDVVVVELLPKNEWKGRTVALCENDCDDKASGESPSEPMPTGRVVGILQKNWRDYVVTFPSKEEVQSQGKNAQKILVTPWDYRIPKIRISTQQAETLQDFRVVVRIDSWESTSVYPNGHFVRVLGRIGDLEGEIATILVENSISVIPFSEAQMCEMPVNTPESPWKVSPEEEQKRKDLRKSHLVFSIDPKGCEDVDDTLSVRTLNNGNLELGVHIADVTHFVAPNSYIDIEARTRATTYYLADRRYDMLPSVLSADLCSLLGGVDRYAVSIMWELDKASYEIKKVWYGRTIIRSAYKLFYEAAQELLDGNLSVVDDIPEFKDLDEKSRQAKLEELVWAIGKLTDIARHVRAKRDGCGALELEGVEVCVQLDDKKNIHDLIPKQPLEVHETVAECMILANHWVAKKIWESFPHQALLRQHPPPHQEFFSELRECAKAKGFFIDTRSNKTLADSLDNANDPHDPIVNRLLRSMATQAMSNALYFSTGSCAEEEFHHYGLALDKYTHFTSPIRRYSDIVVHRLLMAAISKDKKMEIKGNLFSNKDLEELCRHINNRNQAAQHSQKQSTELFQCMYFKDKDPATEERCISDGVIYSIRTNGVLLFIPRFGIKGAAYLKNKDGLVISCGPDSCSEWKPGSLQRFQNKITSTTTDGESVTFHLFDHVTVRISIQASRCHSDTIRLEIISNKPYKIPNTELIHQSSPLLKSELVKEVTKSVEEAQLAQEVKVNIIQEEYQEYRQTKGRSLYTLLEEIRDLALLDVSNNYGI
UniProt Q9Y520: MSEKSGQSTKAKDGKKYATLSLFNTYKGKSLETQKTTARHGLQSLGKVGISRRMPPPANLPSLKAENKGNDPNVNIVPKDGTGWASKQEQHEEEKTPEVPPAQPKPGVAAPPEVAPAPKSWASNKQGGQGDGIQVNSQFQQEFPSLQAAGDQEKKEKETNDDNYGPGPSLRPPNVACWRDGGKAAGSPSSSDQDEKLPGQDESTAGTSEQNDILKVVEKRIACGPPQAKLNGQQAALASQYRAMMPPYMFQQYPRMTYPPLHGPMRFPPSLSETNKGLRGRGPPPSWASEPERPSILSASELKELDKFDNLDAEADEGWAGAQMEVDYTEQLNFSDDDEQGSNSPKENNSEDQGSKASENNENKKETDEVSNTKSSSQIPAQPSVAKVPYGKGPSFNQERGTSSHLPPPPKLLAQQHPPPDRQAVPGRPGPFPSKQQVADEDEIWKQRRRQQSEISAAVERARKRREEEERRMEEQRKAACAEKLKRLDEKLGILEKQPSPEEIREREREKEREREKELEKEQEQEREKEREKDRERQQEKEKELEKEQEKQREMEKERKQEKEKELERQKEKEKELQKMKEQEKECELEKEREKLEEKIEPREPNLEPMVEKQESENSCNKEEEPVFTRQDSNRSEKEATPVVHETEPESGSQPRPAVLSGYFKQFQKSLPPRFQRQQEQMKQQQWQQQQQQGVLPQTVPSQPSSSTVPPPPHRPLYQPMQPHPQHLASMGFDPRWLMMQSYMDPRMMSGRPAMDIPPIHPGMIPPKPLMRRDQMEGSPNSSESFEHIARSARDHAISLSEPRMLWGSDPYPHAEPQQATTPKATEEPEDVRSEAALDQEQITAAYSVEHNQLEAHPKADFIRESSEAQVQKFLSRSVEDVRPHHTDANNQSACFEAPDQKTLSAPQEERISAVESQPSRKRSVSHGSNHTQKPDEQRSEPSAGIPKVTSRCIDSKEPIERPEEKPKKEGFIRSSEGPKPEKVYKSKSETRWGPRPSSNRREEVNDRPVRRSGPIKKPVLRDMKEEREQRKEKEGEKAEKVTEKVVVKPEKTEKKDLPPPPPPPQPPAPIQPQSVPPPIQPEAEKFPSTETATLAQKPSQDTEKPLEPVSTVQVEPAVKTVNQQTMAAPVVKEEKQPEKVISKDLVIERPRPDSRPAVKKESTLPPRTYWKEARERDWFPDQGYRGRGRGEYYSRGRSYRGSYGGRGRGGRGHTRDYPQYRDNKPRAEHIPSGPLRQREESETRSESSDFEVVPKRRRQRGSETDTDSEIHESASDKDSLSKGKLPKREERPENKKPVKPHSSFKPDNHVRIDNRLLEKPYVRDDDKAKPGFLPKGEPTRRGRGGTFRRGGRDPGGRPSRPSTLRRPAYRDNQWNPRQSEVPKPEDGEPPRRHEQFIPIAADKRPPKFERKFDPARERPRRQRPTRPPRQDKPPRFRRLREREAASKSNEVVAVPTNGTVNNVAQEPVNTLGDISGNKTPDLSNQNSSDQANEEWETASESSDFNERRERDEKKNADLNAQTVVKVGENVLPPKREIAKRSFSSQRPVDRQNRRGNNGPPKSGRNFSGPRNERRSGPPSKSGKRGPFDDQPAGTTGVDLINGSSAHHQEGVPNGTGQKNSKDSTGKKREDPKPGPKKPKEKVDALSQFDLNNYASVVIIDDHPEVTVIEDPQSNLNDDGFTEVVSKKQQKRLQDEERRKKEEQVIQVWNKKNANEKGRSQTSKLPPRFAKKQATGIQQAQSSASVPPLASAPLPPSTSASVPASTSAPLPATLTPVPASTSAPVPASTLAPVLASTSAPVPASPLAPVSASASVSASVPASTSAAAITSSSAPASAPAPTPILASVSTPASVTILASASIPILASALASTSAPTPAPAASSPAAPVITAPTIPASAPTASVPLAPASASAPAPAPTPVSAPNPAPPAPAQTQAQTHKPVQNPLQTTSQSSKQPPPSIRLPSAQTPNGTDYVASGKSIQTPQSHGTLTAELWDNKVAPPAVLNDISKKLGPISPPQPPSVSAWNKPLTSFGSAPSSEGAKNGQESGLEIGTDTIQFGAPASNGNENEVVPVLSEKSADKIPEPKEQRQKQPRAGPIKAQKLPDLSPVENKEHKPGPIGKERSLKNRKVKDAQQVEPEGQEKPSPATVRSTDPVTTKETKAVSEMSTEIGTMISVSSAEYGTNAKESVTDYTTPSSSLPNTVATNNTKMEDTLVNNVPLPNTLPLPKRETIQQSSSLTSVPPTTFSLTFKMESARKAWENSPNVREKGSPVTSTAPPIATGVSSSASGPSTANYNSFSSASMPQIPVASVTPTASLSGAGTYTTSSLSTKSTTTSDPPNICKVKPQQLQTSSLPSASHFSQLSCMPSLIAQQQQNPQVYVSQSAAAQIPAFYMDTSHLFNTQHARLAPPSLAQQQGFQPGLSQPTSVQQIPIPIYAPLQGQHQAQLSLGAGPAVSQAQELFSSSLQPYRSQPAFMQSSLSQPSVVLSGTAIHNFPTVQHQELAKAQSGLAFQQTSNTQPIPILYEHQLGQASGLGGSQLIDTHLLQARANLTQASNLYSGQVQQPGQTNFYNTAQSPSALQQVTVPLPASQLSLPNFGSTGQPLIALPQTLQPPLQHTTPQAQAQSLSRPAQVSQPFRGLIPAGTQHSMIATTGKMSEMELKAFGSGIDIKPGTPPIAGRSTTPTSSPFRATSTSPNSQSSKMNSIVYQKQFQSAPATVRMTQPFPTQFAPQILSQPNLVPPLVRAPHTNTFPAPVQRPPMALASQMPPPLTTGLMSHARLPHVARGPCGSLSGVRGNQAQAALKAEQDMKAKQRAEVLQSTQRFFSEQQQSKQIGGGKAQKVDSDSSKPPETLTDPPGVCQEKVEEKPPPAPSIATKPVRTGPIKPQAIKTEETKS
UniProt Q9HD34: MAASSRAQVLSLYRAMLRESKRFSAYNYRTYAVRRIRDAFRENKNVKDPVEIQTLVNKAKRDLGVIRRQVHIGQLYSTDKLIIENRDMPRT
UniProt Q86V97: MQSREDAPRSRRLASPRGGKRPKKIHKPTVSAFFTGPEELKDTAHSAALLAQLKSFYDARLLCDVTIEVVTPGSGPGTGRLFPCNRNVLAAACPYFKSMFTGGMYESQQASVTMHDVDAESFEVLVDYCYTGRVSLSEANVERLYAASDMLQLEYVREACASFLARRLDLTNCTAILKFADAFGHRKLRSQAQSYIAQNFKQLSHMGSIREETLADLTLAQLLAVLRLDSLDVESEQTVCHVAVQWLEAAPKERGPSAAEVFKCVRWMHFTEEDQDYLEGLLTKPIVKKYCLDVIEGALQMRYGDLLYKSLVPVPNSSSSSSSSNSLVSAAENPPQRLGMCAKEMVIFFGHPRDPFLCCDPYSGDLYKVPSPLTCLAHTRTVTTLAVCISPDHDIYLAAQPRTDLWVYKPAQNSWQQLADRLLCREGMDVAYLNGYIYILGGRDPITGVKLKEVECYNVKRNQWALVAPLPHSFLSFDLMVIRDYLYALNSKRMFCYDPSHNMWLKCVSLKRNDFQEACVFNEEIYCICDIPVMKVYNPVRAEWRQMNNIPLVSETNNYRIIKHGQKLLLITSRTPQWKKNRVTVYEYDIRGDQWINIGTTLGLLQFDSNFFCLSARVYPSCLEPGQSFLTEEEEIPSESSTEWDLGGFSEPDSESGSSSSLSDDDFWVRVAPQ
UniProt Q8N6T3: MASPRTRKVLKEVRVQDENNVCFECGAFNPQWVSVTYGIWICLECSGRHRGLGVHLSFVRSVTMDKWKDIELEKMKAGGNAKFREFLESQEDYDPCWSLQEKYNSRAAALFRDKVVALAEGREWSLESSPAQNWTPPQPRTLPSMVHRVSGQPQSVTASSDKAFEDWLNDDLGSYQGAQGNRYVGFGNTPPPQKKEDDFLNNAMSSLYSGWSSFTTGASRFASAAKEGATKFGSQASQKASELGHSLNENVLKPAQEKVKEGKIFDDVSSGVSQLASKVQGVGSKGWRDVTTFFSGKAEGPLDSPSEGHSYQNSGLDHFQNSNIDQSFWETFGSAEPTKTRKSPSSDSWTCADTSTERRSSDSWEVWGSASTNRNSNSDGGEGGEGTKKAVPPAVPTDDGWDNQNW
UniProt Q9Y5A6: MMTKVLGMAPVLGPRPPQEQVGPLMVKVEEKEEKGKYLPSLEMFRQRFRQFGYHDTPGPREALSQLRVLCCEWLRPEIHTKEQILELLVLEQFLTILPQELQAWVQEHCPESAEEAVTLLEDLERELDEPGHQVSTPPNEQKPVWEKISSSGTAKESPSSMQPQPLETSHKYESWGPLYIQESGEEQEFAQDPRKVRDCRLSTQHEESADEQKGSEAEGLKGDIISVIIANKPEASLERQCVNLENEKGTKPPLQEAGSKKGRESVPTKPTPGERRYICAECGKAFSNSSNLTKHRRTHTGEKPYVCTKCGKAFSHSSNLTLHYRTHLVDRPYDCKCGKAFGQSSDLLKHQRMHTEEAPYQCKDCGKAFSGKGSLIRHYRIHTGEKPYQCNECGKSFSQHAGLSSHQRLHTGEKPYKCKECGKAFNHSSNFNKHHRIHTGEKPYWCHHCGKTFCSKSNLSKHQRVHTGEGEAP
UniProt Q96EK7: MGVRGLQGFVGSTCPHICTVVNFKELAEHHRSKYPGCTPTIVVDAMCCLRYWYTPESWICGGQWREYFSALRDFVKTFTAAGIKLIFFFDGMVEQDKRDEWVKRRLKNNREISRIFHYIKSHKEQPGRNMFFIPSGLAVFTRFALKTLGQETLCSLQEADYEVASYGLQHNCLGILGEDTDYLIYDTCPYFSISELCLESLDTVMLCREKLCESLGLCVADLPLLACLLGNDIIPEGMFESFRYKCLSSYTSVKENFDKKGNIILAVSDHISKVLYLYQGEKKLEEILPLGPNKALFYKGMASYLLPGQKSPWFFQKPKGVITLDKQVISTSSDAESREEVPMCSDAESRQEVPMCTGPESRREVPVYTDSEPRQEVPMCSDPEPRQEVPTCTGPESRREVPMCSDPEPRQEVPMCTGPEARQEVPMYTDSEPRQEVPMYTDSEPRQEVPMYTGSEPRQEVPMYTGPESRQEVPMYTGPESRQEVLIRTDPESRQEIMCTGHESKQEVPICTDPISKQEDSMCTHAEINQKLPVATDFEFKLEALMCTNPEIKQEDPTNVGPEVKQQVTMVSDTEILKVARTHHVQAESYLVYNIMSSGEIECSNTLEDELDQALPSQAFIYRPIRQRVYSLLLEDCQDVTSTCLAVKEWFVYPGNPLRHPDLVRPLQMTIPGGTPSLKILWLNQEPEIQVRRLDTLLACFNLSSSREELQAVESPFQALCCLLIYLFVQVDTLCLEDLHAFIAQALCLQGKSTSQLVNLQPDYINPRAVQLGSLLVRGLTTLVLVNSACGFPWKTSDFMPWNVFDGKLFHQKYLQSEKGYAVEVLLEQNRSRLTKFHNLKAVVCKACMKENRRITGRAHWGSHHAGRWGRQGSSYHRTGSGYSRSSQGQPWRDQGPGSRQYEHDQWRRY

Results are given in words; binding and its absence hold for the method and conditions named. Binding seen in cells or lysates may run through a third protein. Here binding means that the protein was enriched with, or labelled near, the bait; the list need not be complete. Sequences can lack the tags named with a protein.

For the molecule DIS3L (from UniProt Q8TF46 1-1054), the binding entry is on record as “binds”.
Under TNRC6C (from UniProt Q9HCJ0 1-1936) stands “binds”; under NFS1 (human (endogenous in 293T)), “binds”; under PRRC2C (from UniProt Q9Y520 1-2896), “binds”.
Under GIGYF1 (from UniProt O75420 1-1035) stands “binds”.
Turning to TNRC6B (from UniProt Q9UPQ9 1-1833), the binding result is “binds”.
Under LYRM4 (from UniProt Q9HD34 1-91) stands “binds”; under KBTBD6 (from UniProt Q86V97 1-674), “binds”.
Under ARFGAP1 (from UniProt Q8N6T3 1-406) stands “binds”; under Argonaute 1 (from UniProt Q9UL18 1-857), “binds”.
With SNX9 (from UniProt Q9Y5X1 1-595), the binding entry is recorded as “binds”.
Under “TNRC6A (GW182) (from UniProt Q8NDV7 1-1962)” stands “binds”; under Argonaute 2 (from UniProt Q9UKV8 1-859), “binds”; under UBAP2L (from UniProt Q14157 1-1087), “binds”.
Under PRRC2B (from UniProt Q5JSZ5 1-2229) stands “binds”; under FAM204A (from UniProt Q9H8W3 1-233), “binds”; under ZNFX1 (from UniProt Q9P2E3 1-1918), “binds”.
In the case of “cellular NIMA-related protein kinase (HNEK9) (from UniProt Q8TD19 1-979)”, the binding result is reported as “binds”.
For ZSCAN21 (from UniProt Q9Y5A6 1-473), the binding result is listed as “binds”.
Under FAM120B (from UniProt Q96EK7 1-910) stands “binds”; under EIF4E2 (from UniProt O60573 1-245), “binds”.

B1: AAMP (protein, UniProt Q13685 1-434)
chain: MESESESGAAADTPPLETLSFHGDEEIIEVVELDPGPPDPDDLAQEMEDVDFEEEEEEEGNEEGWVLEPQEGVVGSMEGPDDSEVTFALHSASVFCVSLDPKTNTLAVTGGEDDKAFVWRLSDGELLFECAGHKDSVTCAGFSHDSTLVATGDMSGLLKVWQVDTKEEVWSFEAGDLEWMEWHPRAPVLLAGTADGNTWMWKVPNGDCKTFQGPNCPATCGRVLPDGKRAVVGYEDGTIRIWDLKQGSPIHVLKGTEGHQGPLTCVAANQDGSLILTGSVDCQAKLVSATTGKVVGVFRPETVASQPSLGEGEESESNSVESLGFCSVMPLAAVGYLDGTLAIYDLATQTLRHQCQHQSGIVQLLWEAGTAVVYTCSLDGIVRLWDARTGRLLTDYRGHTAEILDFALSKDASLVVTTSGDHKAKVFCVQRPDR
Turning to B1, the binding result is on record as “binds”.

B2: NECAP2 (protein, UniProt Q9NVZ3 1-263)
chain: MEESGYESVLCVKPDVHVYRIPPRATNRGYRAAEWQLDQPSWSGRLRITAKGQMAYIKLEDRTSGELFAQAPVDQFPGTAVESVTDSSRYFVIRIEDGNGRRAFIGIGFGDRGDAFDFNVALQDHFKWVKQQCEFAKQAQNPDQGPKLDLGFKEGQTIKLNIANMKKKEGAAGNPRVRPASTGGLSLLPPPPGGKTSTLIPPPGEQLAVGGSLVQPAVAPSSGGAPVPWPQPNPATADIWGDFTKSTGSTSSQTQPGTGWVQF
With B2, the binding entry was “binds”.

B3: GIGYF2 (protein, UniProt Q6Y7W6 1-1299)
chain: MAAETQTLNFGPEWLRALSSGGSITSPPLSPALPKYKLADYRYGREEMLALFLKDNKIPSDLLDKEFLPILQEEPLPPLALVPFTEEEQRNFSMSVNSAAVLRLTGRGGGGTVVGAPRGRSSSRGRGRGRGECGFYQRSFDEVEGVFGRGGGREMHRSQSWEERGDRRFEKPGRKDVGRPNFEEGGPTSVGRKHEFIRSESENWRIFREEQNGEDEDGGWRLAGSRRDGERWRPHSPDGPRSAGWREHMERRRRFEFDFRDRDDERGYRRVRSGSGSIDDDRDSLPEWCLEDAEEEMGTFDSSGAFLSLKKVQKEPIPEEQEMDFRPVDEGEECSDSEGSHNEEAKEPDKTNKKEGEKTDRVGVEASEETPQTSSSSARPGTPSDHQSQEASQFERKDEPKTEQTEKAEEETRMENSLPAKVPSRGDEMVADVQQPLSQIPSDTASPLLILPPPVPNPSPTLRPVETPVVGAPGMGSVSTEPDDEEGLKHLEQQAEKMVAYLQDSALDDERLASKLQEHRAKGVSIPLMHEAMQKWYYKDPQGEIQGPFNNQEMAEWFQAGYFTMSLLVKRACDESFQPLGDIMKMWGRVPFSPGPAPPPHMGELDQERLTRQQELTALYQMQHLQYQQFLIQQQYAQVLAQQQKAALSSQQQQQLALLLQQFQTLKMRISDQNIIPSVTRSVSVPDTGSIWELQPTASQPTVWEGGSVWDLPLDTTTPGPALEQLQQLEKAKAAKLEQERREAEMRAKREEEERKRQEELRRQQEEILRRQQEEERKRREEEELARRKQEEALRRQREQEIALRRQREEEERQQQEEALRRLEERRREEEERRKQEELLRKQEEEAAKWAREEEEAQRRLEENRLRMEEEAARLRHEEEERKRKELEVQRQKELMRQRQQQQEALRRLQQQQQQQQLAQMKLPSSSTWGQQSNTTACQSQATLSLAEIQKLEEERERQLREEQRRQQRELMKALQQQQQQQQQKLSGWGNVSKPSGTTKSLLEIQQEEARQMQKQQQQQQQHQQPNRARNNTHSNLHTSIGNSVWGSINTGPPNQWASDLVSSIWSNADTKNSNMGFWDDAVKEVGPRNSTNKNKNNASLSKSVGVSNRQNKKVEEEEKLLKLFQGVNKAQDGFTQWCEQMLHALNTANNLDVPTFVSFLKEVESPYEVHDYIRAYLGDTSEAKEFAKQFLERRAKQKANQQRQQQQLPQQQQQQPPQQPPQQPQQQDSVWGMNHSTLHSVFQTNQSNNQQSNFEAVQSGKKKKKQKMVRADPSLLGFSVNASSERLNMGEIETLDDY
For the molecule B3, the binding result was “binds”.

B4: UBAP2 (protein, UniProt Q5T6F2 1-1119)
chain: MMTSVSSDHCRGAREKPQISAAQSTQPQKQVVQATAEQMRLAQVIFDKNDSDFEAKVKQLMEVTGKNQDECIVALHDCNGDVNKAINILLEGNSDTTSWETVGCKKKNFAKENSENKENREKKSEKESSRGRGNNNRKGRGGNRGREFRGEENGIDCNQVDKPSDRGKRARGRGFGRGRGRGAGRFSTQGMGTFNPADYSDSTSTDVCGTKLVVWEAAQNGADEGTELASNTHNIAQDLSNKSSYGLKGAWKNSVEEWTTEDWTEDLSETKVFTASSAPAENHILPGQSIDLVALLQKPVPHSQASEANSFETSQQQGFGQALVFTNSQHNNQMAPGTGSSTAVNSCSPQSLSSVLGSGFGELAPPKMANITSSQILDQLKAPSLGQFTTTPSTQQNSTSHPTTTTSWDLKPPTSQSSVLSHLDFKSQPEPSPVLSQLSQRQQHQSQAVTVPPPGLESFPSQAKLRESTPGDSPSTVNKLLQLPSTTIENISVSVHQPQPKHIKLAKRRIPPASKIPASAVEMPGSADVTGLNVQFGALEFGSEPSLSEFGSAPSSENSNQIPISLYSKSLSEPLNTSLSMTSAVQNSTYTTSVITSCSLTSSSLNSASPVAMSSSYDQSSVHNRIPYQSPVSSSESAPGTIMNGHGGGRSQQTLDTPKTTGPPSALPSVSSLPSTTSCTALLPSTSQHTGDLTSSPLSQLSSSLSSHQSSLSAHAALSSSTSHTHASVESASSHQSSATFSTAATSVSSSASSGASLSSSMNTANSLCLGGTPASASSSSSRAAPLVTSGKAPPNLPQGVPPLLHNQYLVGPGGLLPAYPIYGYDELQMLQSRLPVDYYGIPFAAPTALASRDGSLANNPYPGDVTKFGRGDSASPAPATTPAQPQQSQSQTHHTAQQPFVNPALPPGYSYTGLPYYTGMPSAFQYGPTMFVPPASAKQHGVNLSTPTPPFQQASGYGQHGYSTGYDDLTQGTAAGDYSKGGYAGSSQAPNKSAGSGPGKGVSVSSSTTGLPDMTGSVYNKTQTFDKQGFHAGTPPPFSLPSVLGSTGPLASGAAPGYAPPPFLHILPAHQQPHSQLLHHHLPQDAQSGSGQRSQPSSLQPKSQASKPAYGNSPYWTN
Consider B4, for which the binding entry is listed as “binds”.

B5: ZNF598 (protein, UniProt Q86UK7 1-904)
chain: MAAAGGAEGRRAALEAAAAAAPERGGGSCVLCCGDLEATALGRCDHPVCYRCSTKMRVLCEQRYCAVCREELRQVVFGKKLPAFATIPIHQLQHEKKYDIYFADGKVYALYRQLLQHECPRCPELPPFSLFGDLEQHMRRQHELFCCRLCLQHLQIFTYERKWYSRKDLARHRMQGDPDDTSHRGHPLCKFCDERYLDNDELLKHLRRDHYFCHFCDSDGAQDYYSDYAYLREHFREKHFLCEEGRCSTEQFTHAFRTEIDLKAHRTACHSRSRAEARQNRHIDLQFSYAPRHSRRNEGVVGGEDYEEVDRYSRQGRVARAGTRGAQQSRRGSWRYKREEEDREVAAAVRASVAAQQQEEARRSEDQEEGGRPKKEEAAARGPEDPRGPRRSPRTQGEGPGPKETSTNGPVSQEAFSVTGPAAPGCVGVPGALPPPSPKLKDEDFPSLSASTSSSCSTAATPGPVGLALPYAIPARGRSAFQEEDFPALVSSVPKPGTAPTSLVSAWNSSSSSKKVAQPPLSAQATGSGQPTRKAGKGSRGGRKGGPPFTQEEEEDGGPALQELLSTRPTGSVSSTLGLASIQPSKVGKKKKVGSEKPGTTLPQPPPATCPPGALQAPEAPASRAEGPVAVVVNGHTEGPAPARSAPKEPPGLPRPLGSFPCPTPQEDFPALGGPCPPRMPPPPGFSAVVLLKGTPPPPPPGLVPPISKPPPGFSGLLPSPHPACVPSPATTTTTKAPRLLPAPRAYLVPENFRERNLQLIQSIRDFLQSDEARFSEFKSHSGEFRQGLISAAQYYKSCRDLLGENFQKVFNELLVLLPDTAKQQELLSAHTDFCNREKPLSTKSKKNKKSAWQATTQQAGLDCRVCPTCQQVLAHGDASSHQALHAARDDDFPSLQAIARIIT
On to B5, for which the binding entry is on record as “binds”.
